In paper PMC5813027:
Results are given in words; binding and its absence hold for the method and conditions named. Binding seen in cells or lysates may run through a third protein. Some entries that bind do so weakly or less than the wild type.

The chains behind the UniProt entries cited, without tags or fusion partners.
UniProt P33176: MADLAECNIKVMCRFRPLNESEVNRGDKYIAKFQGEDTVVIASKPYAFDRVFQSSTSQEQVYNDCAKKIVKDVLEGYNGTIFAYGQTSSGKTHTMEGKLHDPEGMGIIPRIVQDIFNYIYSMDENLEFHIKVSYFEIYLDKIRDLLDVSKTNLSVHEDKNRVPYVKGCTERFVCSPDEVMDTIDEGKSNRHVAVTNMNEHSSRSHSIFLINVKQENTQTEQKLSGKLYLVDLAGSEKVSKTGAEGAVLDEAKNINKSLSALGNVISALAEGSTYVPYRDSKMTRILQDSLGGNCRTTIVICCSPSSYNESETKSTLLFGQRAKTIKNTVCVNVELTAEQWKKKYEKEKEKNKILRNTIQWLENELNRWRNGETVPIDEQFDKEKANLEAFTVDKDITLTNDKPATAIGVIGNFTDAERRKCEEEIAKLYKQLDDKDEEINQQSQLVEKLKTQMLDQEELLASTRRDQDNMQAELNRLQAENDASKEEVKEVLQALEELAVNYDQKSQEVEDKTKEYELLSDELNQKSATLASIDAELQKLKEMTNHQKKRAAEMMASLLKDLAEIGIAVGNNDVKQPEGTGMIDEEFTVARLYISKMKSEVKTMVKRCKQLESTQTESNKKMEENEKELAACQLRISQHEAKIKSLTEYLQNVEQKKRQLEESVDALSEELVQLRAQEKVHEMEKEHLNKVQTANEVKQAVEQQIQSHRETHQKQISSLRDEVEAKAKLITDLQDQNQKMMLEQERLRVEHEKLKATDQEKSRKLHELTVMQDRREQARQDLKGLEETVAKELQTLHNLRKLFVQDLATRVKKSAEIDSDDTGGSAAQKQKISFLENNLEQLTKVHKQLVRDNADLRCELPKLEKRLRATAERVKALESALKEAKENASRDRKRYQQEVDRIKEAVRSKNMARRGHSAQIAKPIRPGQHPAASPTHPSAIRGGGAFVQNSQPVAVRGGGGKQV

Biological target: T1, endogenous CCDC28B (human (endogenous in Hek293)) (UniProt Q9BUN5)
T1 sequence: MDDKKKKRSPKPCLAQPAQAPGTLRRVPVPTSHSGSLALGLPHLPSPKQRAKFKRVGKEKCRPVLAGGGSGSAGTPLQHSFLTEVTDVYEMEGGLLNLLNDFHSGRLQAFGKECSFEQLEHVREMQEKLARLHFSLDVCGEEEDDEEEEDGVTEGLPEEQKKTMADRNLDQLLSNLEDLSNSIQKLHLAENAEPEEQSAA
Experiment: co-IP; non-transfected cells; endogenous CCDC28B precipitated with biotinylated anti-CCDC28B VHH on Streptavidin-Agarose; western blots for KIF5B, KLC1, α-tubulin and CCDC28B

With “kinesin 1 heavy chain KIF5B (from UniProt P33176 1-963)” as the substance, how does the binding read?
Its binding is “binds”.
